Data on 1 substance can be found in article PMC12406535.

Sequences of proteins named here, by UniProt entry; tags and fusion partners are left off. Residues count along the entry.
UniProt P32248, residues 25-378: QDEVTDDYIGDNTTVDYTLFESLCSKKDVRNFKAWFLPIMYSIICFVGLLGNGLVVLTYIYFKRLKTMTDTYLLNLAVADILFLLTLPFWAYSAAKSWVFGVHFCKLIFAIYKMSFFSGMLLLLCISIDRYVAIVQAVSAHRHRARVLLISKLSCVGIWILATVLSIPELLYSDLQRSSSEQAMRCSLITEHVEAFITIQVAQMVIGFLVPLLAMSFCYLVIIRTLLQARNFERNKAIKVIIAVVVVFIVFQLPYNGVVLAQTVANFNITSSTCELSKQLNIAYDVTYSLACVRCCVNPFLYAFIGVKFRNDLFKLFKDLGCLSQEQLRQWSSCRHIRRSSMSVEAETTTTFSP

These are yes or no findings as the source states them, for the method shown. Binding seen in cells or lysates may run through a third protein. Some binding calls cover weakened binding; strength is not graded here. Sequences can lack the tags named with a protein.

The target of this experiment is T1, HA-tagged CXCL14 (human) (UniProt O95715).
T1 sequence: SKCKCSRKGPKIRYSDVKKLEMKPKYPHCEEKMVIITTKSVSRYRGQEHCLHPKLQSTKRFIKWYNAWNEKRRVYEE
Nature of the experiment: co-IP; T24 cell lysate in IP lysis buffer; anti-HA beads, or antibody overnight at 4 °C followed by Protein A/G beads for 4-6 h; three washes with cold lysis buffer; IgG as negative control; Western blot.

As for “CCR7 (from UniProt P32248 25-378) (receptor)”, the binding result is on record as “binds”.
